From patent US5616615A, “Enaminone esters” (priority 1995, dated 1997)
At least one compound was matched to its structure with a doubt left.

System: seizures
Assay: Anticonvulsant evaluation (ASP phase I / overall)
Format: in vivo, mice
Description: The first phase of the ADD Program involved performing tests on male Carworth Farms #1 mice. […] Three tests were performed:
Maximal electroshock seizures are elicited with a 60-cycle alternating current of 50 mA intensity (5-7 times that necessary to elicit minimal electroshock seizures) delivered via corneal electrodes for 0.2 seconds. A drop of 0.9% saline is instilled in the eye prior to application of the electrodes in order to […].
The animal is observed for 30 minutes.

SMILES	ASP Classification
O=C1C=C(NCc2ccccc2)CCC1 [Compound 153]	1 (anticonvulsant activity at 100 mg/kg or less)
O=C1C=C(NCCc2ccccc2)CCC1 [Compound 154]	2 (anticonvulsant activity at doses greater than 100 mg/kg)
